The results are deposited in PubChem (AID1159506; NCATS, 2015).

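Genome-wide siRNA knockdown in TC32 Ewing sarcoma cells, comparing luciferase light from an NR0B1-promoter reporter with a CMV-promoter reporter 48 hours after transfection. Each siRNA was applied at 20 nM. A z-score of the log NR0B1-over-CMV signal, less the median of siRNAs with the same seed; more negative means a stronger specific loss of the NR0B1 reporter.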

The strongest results of the screen are mostly left out here. Sequences are the guide (antisense) strand, without overhang.

Result for AGAACUUGUAUUCUCUUGG against RNF138 was seed-corrected z-score -0.1789. With UUGCGUAAGAGGGCUGCAC against EGLN3 the assay gave seed-corrected z-score -0.09142. UAUGCGUCAUAGGUCUUUC against IL1R1 gave seed-corrected z-score -0.2305. UUACUGCCAUGUGAACACC against OGFRP1 gave seed-corrected z-score -0.0008971. Result for UAUCCAACAUGCGAUCAGC against DDX4 was seed-corrected z-score -0.1252.

Result for UGCAGUAAAAGAUGGGUCU against TRIM56 was seed-corrected z-score -0.006647. Result for AUCCUUAGAGGUGCCCUUG against GRB7 was seed-corrected z-score 0.04944. UACAAGCCCACGACAGUCU against MYH7 gave seed-corrected z-score -0.5648. ACUCUUCCCACUGUCCUGG against LHFP read seed-corrected z-score -1.128. With UACUUAUUGGCACAAAUUC against RPL10 the assay gave seed-corrected z-score -1.66.

With UUCGUGACAGAAUAGGGCC against TRIM28 the assay gave seed-corrected z-score 0.3698. UUAGCAACUUGACAAAGUG against THAP9 read seed-corrected z-score 0.6919. AUUCCAAGCCUCUUUAUUU against ZNF735 gave seed-corrected z-score -0.9323. Result for UUGGUGAAGACUCCUUUCG against PRDX6 was seed-corrected z-score -0.7394. UUGAGGAACGUGGACUUGC against GNA12 gave seed-corrected z-score -0.03288.

UGCUUGUCGGGUAAAAGCC against FBXO7 gave seed-corrected z-score 1.093. With AAGUGUACCAGUGCUCCUG against WDR24 the assay gave seed-corrected z-score 0.3678. For UUCUGUUUAAUAAGUUCAC against CTAGE1 the result was seed-corrected z-score -0.03436. With UAAGGAUCAGGUUUUGGAC against CLN5 the assay gave seed-corrected z-score 0.6592. UGACUGUAAAACUAUGCUC against PPM1L gave seed-corrected z-score -1.202.

Result for UCCCUUAUGAUCUGGUUCC against MAP2K1 was seed-corrected z-score -0.7993. UUCUGUAAUAGGAUCAGGU against NPC1L1 read seed-corrected z-score -0.3822. UAGUGUAUUGCGCUGGUCC against PLCD1 read seed-corrected z-score 0.5226. With UUUGGUUUAUCCGGUGUCG against HES1 the assay gave seed-corrected z-score -0.9808. AGAACAUCCAUGUUUUCGC against HERC2 gave seed-corrected z-score 0.2673.

UAUGGAGACAAGACGGACA against CCDC114 gave seed-corrected z-score -1.609. For AUUGCAUCUAAUAAAGCAG against FRG1 the result was seed-corrected z-score 0.8046. For AUGAGUAUCACAGAUACUG against CYP26A1 the result was seed-corrected z-score 0.2484. UAAAAUUAAUGUAUGCUCU against UPF3A read seed-corrected z-score 0.286. UGCGUGAUACUCUAGAUGG against CYGB gave seed-corrected z-score -0.0633.

With UUACGUGACAUGGAAACGC against IL17F the assay gave seed-corrected z-score 0.5167.

Once more, the final 4:

{"strand": "AUGAGUAUCACAGAUACUG", "target gene": "CYP26A1", "seed-corrected z-score": "0.2484"}
{"strand": "UAAAAUUAAUGUAUGCUCU", "target gene": "UPF3A", "seed-corrected z-score": "0.286"}
{"strand": "UGCGUGAUACUCUAGAUGG", "target gene": "CYGB", "seed-corrected z-score": "-0.0633"}
{"strand": "UUACGUGACAUGGAAACGC", "target gene": "IL17F", "seed-corrected z-score": "0.5167"}